Test results taken from patent US20230183662.
Protein sequences can lack the tags named with them.

Key:
[1] = system: T1, M.DraR1 N4-cytosine DNA methyltransferase (Deinococcus radiodurans R1); test: activity assay; settings: in vitro methylation protects from SacII; 1 uM protein, 50-200 mM KCl, Tris-HCl pH 7.5-8.0, 20-100 uM SAM; optimum 25-37 C, weak at 4 C and 45-55 C; purified recombinant protein; only the site is given
T1 sequence (limits assumed): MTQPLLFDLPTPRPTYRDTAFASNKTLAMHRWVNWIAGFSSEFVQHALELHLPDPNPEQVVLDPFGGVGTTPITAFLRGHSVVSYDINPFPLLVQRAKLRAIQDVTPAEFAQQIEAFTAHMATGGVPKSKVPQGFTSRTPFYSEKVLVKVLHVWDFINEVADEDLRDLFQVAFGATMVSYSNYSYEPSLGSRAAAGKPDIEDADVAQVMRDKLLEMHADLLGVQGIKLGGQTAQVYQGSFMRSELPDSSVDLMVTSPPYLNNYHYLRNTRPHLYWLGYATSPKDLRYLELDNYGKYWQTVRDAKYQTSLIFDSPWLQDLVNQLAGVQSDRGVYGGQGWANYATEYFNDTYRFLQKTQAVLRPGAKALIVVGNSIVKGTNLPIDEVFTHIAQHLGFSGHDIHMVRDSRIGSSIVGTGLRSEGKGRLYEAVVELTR

[2] = system: T1, M.DraR1 N4-cytosine DNA methyltransferase (Deinococcus radiodurans R1); test: activity in cells; settings: plasmid from E. coli ER2796 resistant to SacII; unmethylated PCR product is digested; protein in cells; only the site is given

Sequence | activity on this sequence [1] | activity on this sequence [2]
CCGCGG (double strand) [CCGCGG motif in HindIII-linearized pRRS-M.DraR1 plasmid] | active | –
CCGCGG (double strand) [CCGCGG motif in pRRS-M.DraR1 plasmid in E. coli ER2796] | – | active
